Test results from the supplement of paper PMC12823440, “Inhibitors supercharge kinase turnover through native proteolytic circuits” (Nature, 2025).
Counter-ions that a name gives are not always drawn. The list shows a part of the results. Hit calls seldom repeat between salt and free forms of one compound.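 In K562 cells expressing nanoluciferase-fused kinases, luminescence was recorded at 4 h intervals between 2 and 18 h, normalized as percent of control with DMSO at 100% and a positive control at 0%. A significant (2 sigma) signal drop marks a time point as decreased. The authors' rule for a hit is not shown and takes in more than the number of time points.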

What follows are molecules tested against ZAK (UniProt Q9NYL2) (assay: kinase-Nluc reporter destabilization hit call (1 = scored as downregulated) (binary); higher = compound decreases kinase abundance). Settings: K562; 2-18 h.

kinase-Nluc reporter destabilization hit call, inactive:
CN1CC[C@@H](c2c(O)cc(O)c3c(=O)cc(-c4ccc(C(F)(F)F)cc4Cl)oc23)[C@@H]1CO [Voruciclib (hydrochloride)] (10 µM) 0
O=c1cc(-c2cccc3c2Sc2ccccc2S3)oc(N2CCOCC2)c1 (10 µM) 0
O=[N+]([O-])c1ccc(Nc2nc(N3CCOCC3)nc(N3CCOCC3)n2)cc1 (10 µM) 0
c1ccc(-c2nc(=NCCN3CCOCC3)sn2-c2ccccc2)cc1 [VP3.15 (dihydrobromide)] (10 µM) 0
Nc1nc(N)c2nc(-c3cccc(O)c3)cnc2n1 (10 µM) 0
Nc1ncnc2c1c(-c1ccc(Oc3ccccc3)cc1)nn2C1CCN(CCOCCOCCOc2ccc3c(c2)CN(C2CCC(=O)NC2=O)C3=O)CC1 (stereo not drawn) (2.5 µM) 0
C=CC(=O)N1C[C@H](COc2nc(Nc3cnn(C)c3)nc3[nH]cc(Cl)c23)[C@@H](OC)C1 (2.5 µM) 0
Cc1nn(C)c2c1C(c1ccc(C(F)(F)F)cc1)C(C#N)=C(N)O2 (stereo not drawn) (10 µM) 0
O=C(NC1CCOCC1)c1ccc(-c2cc(-c3c[nH]nc3-c3ccccn3)ccn2)cc1 (10 µM) 0
CC/C(=N\NC(=O)c1ccnc(NCCCN2CCOCC2)c1)c1ccc(Cl)cc1O (2.5 µM) 0
COc1cc(N2CCOCC2)ccc1Nc1ncc(Cl)c(Nc2ccccc2NS(C)(=O)=O)n1 (2.5 µM) 0
Cn1cnc([N+](=O)[O-])c1C[N+](C)(C)C/C=C/C(=O)Nc1cc2c(Nc3ccc(Cl)c(Br)c3)ncnc2cn1 [Tarloxotinib (bromide)] (10 µM) 0
O=C(Nc1cccc(C(F)(F)F)c1)c1cccc2cc(Oc3cc(CO)ncn3)ccc12 (10 µM) 0
Oc1ccc(/C=C/c2cc(O)cc(O)c2)cc1 [Resveratrol] (10 µM) 0
O=c1[nH]c(C2CCCN2)nc2c1oc1ccc(Cl)cc12 (stereo not drawn) [XL413 (hydrochloride)] (10 µM) 0
CN(c1ccc(NC(=O)Nc2ccc(OC(F)(F)F)cc2)cc1)c1ccnc(Nc2cccc(S(N)(=O)=O)c2)n1 (2.5 µM) 0
C=C[C@@](C)(/C=C/c1ccc(O)cc1)CCC=C(C)C [Bakuchiol] (10 µM) 0
COc1cc2ncnc(-n3nc(-c4ccccn4)nc3N)c2cc1OC (10 µM) 0
CNc1nc(Nc2ccc(C(=O)N3CCOCC3)cc2OC)ncc1Cl (2.5 µM) 0
CC(C)S(=O)(=O)c1ccc2nccc(Nc3ccc4scnc4c3)c2c1 (10 µM) 0
CC(C)(O)[C@H]1CC[C@H](Nc2ccc3ncc(-c4cccc(C(F)(F)F)c4)n3n2)CC1 (10 µM) 0
CCN(CC)c1ccc2cc(-c3nc4cc(C)ccc4o3)c(=O)oc2c1 (10 µM) 0
CN(C)S(=O)(=O)c1ccc2c(c1)/C(=C/c1cc3c([nH]1)CCCC3)C(=O)N2 (2.5 µM) 0
C=CC(=O)Nc1cc(Nc2nccc(-n3cc(CN(C)C)c(-c4ccccc4)n3)n2)c(OC)cc1N1CCOCC1 [Lazertinib] (10 µM) 0
Cc1ccc2c(Nc3cccc(Cl)c3F)nccc2c1NC(=O)c1csc2c(N)ncnc12 [Belvarafenib] (10 µM) 0
Oc1cc(O)c2c(c1)OC1(c3ccc(O)c(O)c3)Oc3cc(O)c4c(c3C2C1O)OC(c1ccc(O)c(O)c1)C(O)C4 (stereo not drawn) [Procyanidin A1] (10 µM) 0
c1ccc(-c2nc3c(c(-n4ccc5cnccc54)n2)CCC3)nc1 (10 µM) 0
Cc1cc(C)nc(NS(=O)(=O)c2ccc(NC(=S)NC(=O)COc3ccc(Br)cc3Cl)cc2)n1 (2.5 µM) 0
Cc1ccc(NC(=O)c2ccc(CN(CCN(C)C)C(=O)c3cccnc3)cc2)cc1Nc1nccc(-c2cccnc2)n1 [PDGFRα kinase inhibitor 1] (10 µM) 0
C[C@H](Nc1ncnc2[nH]cnc12)c1cc2ccc(F)cc2nc1-c1ccccn1 (10 µM) 0
CN(C)CCC=C1c2ccccc2CCc2ccccc21 [Amitriptyline (hydrochloride)] (2.5 µM) 0
O=C1/C(=C\c2ccc(Cl)cc2)C=C(c2ccccc2)N1c1ccc(O)cc1 (2.5 µM) 0
C[C@@H]1CCNC(=O)c2cc3ccc(C(=O)Nc4nc5ccccc5n4CCCN(C)C)cc3n21 (10 µM) 0
COc1c(Nc2cc(C)[nH]n2)nc(Sc2ccc(S(=O)(=O)Cc3cccc([N+](=O)[O-])c3F)cc2F)nc1N1CCCCC1 [Centrinone-B] (2.5 µM) 0
COc1ccc(/C=C/C(=O)C2(C(=O)/C=C/c3ccc(OC)c(OC)c3)CCCCC2)cc1OC (2.5 µM) 0
CN(C)c1nc2c(Br)c(Br)c(Br)c(Br)c2[nH]1 (10 µM) 0
O=C(Nc1nc(=O)n(Cc2ccc(Cl)cc2)s1)c1ccc(Cl)cc1 (10 µM) 0
Nc1n[nH]c2nc(-c3ccc(NS(=O)(=O)c4cc(Cl)ccc4F)cc3)cnc12 (10 µM) 0

Taken from the listing (11 entries):
kinase-Nluc reporter destabilization hit call, inactive:
COc1cc2ncnc(-n3nc(-c4ccccn4)nc3N)c2cc1OC (10 µM) 0
CNc1nc(Nc2ccc(C(=O)N3CCOCC3)cc2OC)ncc1Cl (2.5 µM) 0
CC(C)S(=O)(=O)c1ccc2nccc(Nc3ccc4scnc4c3)c2c1 (10 µM) 0
CC(C)(O)[C@H]1CC[C@H](Nc2ccc3ncc(-c4cccc(C(F)(F)F)c4)n3n2)CC1 (10 µM) 0
CCN(CC)c1ccc2cc(-c3nc4cc(C)ccc4o3)c(=O)oc2c1 (10 µM) 0
CN(C)S(=O)(=O)c1ccc2c(c1)/C(=C/c1cc3c([nH]1)CCCC3)C(=O)N2 (2.5 µM) 0
C=CC(=O)Nc1cc(Nc2nccc(-n3cc(CN(C)C)c(-c4ccccc4)n3)n2)c(OC)cc1N1CCOCC1 [Lazertinib] (10 µM) 0
Cc1ccc2c(Nc3cccc(Cl)c3F)nccc2c1NC(=O)c1csc2c(N)ncnc12 [Belvarafenib] (10 µM) 0
Oc1cc(O)c2c(c1)OC1(c3ccc(O)c(O)c3)Oc3cc(O)c4c(c3C2C1O)OC(c1ccc(O)c(O)c1)C(O)C4 (stereo not drawn) [Procyanidin A1] (10 µM) 0
c1ccc(-c2nc3c(c(-n4ccc5cnccc54)n2)CCC3)nc1 (10 µM) 0
Cc1cc(C)nc(NS(=O)(=O)c2ccc(NC(=S)NC(=O)COc3ccc(Br)cc3Cl)cc2)n1 (2.5 µM) 0
